Source: US6395548

Chains of the proteins cited; added tags and fusions are not shown. Lines headed by an entry give the natural chain unless they say otherwise; changes in a name come on top.
UniProt Q99814: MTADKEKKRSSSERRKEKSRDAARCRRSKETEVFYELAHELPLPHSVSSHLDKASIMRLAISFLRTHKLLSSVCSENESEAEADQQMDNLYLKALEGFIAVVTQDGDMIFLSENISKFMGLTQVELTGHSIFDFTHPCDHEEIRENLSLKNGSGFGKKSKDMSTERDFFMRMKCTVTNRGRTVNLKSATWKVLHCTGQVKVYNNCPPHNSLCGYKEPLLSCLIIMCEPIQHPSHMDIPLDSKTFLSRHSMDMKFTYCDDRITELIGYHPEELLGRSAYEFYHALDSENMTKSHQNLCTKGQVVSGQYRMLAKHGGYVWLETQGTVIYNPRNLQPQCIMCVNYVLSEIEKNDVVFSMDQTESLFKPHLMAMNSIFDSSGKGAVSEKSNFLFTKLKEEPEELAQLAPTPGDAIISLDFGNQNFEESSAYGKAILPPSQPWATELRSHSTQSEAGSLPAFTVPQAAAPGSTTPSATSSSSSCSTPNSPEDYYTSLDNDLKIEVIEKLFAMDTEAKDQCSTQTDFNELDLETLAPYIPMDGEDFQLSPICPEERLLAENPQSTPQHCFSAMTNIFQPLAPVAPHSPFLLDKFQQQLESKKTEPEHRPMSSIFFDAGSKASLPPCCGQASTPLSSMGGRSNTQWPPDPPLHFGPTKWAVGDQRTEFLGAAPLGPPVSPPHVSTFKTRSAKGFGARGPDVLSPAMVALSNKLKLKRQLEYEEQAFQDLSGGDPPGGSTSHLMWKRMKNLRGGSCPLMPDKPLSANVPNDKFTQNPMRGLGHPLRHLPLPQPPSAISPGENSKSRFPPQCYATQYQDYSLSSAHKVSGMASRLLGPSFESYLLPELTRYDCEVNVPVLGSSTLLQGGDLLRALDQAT

Assays:
[1] = target: EPAS1 lacking transactivation domain (dominant negative) del486-639 or del486-690 (Homo sapiens) (UniProt Q99814); experiment: binding assay; details: retained heterodimer formation and binding to HIF-1 site; method not stated; cited from earlier work
[2] = tested on: EPAS1 basic region deletion deletion of basic (bHLH) region SEQ ID NO:3 (Homo sapiens); experiment: activity in cells; details: VEGF promoter reporter; activation completely abolished; protein in cells; only the site is given

GCCCTACGTGCTGTCTCA (double strand)
binding result [1]: binds | activity on this sequence [2]: not active

The exact form of at least one protein or probe is not confirmed. For some assays here: No signal at the amounts used counts as a negative.
